Results from publication PMC9063202 (2022).
These are yes or no findings as the source states them, for the method shown. In cells and extracts the contact can be indirect. Here binding means that the protein was enriched with, or labelled near, the bait; the list need not be complete.

Protein sequences, listed by entry. Tags and fused reporters are not part of them. Lines headed by an entry give the natural chain unless they say otherwise; changes in a name come on top.
UniProt Q8NAU1: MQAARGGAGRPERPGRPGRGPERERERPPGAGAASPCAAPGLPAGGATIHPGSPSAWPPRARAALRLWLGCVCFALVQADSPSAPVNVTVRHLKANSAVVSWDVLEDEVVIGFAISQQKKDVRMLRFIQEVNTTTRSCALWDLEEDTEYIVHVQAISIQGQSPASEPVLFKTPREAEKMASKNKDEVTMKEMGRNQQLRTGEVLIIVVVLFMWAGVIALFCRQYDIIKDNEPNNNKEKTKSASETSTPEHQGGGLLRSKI

Biological target: IRISIN protein (human recombinant IRISIN) (human) (UniProt Q8NAU1)
Assay: affinity purification with mass spectrometry; IRISIN IP with lysates of rosiglitazone- and IRISIN-treated MSCs; SDS-PAGE, silver staining, LC-MS/MS; TRPC3 confirmed by western blot; only the target purified

B1: TRPC3, endogenous in adipose-derived mesenchymal stem cells (protein, UniProt Q13507 1-921)
chain: MSTKVRKCKEQARVTFPAPEEEEDEGEDEGAEPQRRRRGWRGVNGGLEPRSAPSQREPHGYCPPPFSHGPDLSMEGSPSLRRMTVMREKGRRQAVRGPAFMFNDRGTSLTAEEERFLDAAEYGNIPVVRKMLEESKTLNVNCVDYMGQNALQLAVGNEHLEVTELLLKKENLARIGDALLLAISKGYVRIVEAILNHPGFAASKRLTLSPCEQELQDDDFYAYDEDGTRFSPDITPIILAAHCQKYEVVHMLLMKGARIERPHDYFCKCGDCMEKQRHDSFSHSRSRINAYKGLASPAYLSLSSEDPVLTALELSNELAKLANIEKEFKNDYRKLSMQCKDFVVGVLDLCRDSEEVEAILNGDLESAEPLEVHRHKASLSRVKLAIKYEVKKFVAHPNCQQQLLTIWYENLSGLREQTIAIKCLVVLVVALGLPFLAIGYWIAPCSRLGKILRSPFMKFVAHAASFIIFLGLLVFNASDRFEGITTLPNITVTDYPKQIFRVKTTQFTWTEMLIMVWVLGMMWSECKELWLEGPREYILQLWNVLDFGMLSIFIAAFTARFLAFLQATKAQQYVDSYVQESDLSEVTLPPEIQYFTYARDKWLPSDPQIISEGLYAIAVVLSFSRIAYILPANESFGPLQISLGRTVKDIFKFMVLFIMVFFAFMIGMFILYSYYLGAKVNAAFTTVEESFKTLFWSIFGLSEVTSVVLKYDHKFIENIGYVLYGIYNVTMVVVLLNMLIAMINSSYQEIEDDSDVEWKFARSKLWLSYFDDGKTLPPPFSLVPSPKSFVYFIMRIVNFPKCRRRRLQKDIEMGMGNSKSRLNLFTQSNSRVFESHSFNSILNQPTRYQQIMKRLIKRYVLKAQVDKENDEVNEGELKEIKQDISSLRYELLEDKSQATEELAILIHKLSEKLNPSMLRCE
With B1 the binding was “binds”.
